The text below walks through data of the supplement of paper PMC12819154, “High-throughput peptide-centric local stability assay extends protein–ligand identification to membrane proteins, tissues and bacteria” (Nature Structural & Molecular Biology, 2025).

Protein sequences, listed by entry. Tags and fused reporters are not part of them. Lines headed by an entry give the natural chain unless they say otherwise; changes in a name come on top.
UniProt Q3UG20: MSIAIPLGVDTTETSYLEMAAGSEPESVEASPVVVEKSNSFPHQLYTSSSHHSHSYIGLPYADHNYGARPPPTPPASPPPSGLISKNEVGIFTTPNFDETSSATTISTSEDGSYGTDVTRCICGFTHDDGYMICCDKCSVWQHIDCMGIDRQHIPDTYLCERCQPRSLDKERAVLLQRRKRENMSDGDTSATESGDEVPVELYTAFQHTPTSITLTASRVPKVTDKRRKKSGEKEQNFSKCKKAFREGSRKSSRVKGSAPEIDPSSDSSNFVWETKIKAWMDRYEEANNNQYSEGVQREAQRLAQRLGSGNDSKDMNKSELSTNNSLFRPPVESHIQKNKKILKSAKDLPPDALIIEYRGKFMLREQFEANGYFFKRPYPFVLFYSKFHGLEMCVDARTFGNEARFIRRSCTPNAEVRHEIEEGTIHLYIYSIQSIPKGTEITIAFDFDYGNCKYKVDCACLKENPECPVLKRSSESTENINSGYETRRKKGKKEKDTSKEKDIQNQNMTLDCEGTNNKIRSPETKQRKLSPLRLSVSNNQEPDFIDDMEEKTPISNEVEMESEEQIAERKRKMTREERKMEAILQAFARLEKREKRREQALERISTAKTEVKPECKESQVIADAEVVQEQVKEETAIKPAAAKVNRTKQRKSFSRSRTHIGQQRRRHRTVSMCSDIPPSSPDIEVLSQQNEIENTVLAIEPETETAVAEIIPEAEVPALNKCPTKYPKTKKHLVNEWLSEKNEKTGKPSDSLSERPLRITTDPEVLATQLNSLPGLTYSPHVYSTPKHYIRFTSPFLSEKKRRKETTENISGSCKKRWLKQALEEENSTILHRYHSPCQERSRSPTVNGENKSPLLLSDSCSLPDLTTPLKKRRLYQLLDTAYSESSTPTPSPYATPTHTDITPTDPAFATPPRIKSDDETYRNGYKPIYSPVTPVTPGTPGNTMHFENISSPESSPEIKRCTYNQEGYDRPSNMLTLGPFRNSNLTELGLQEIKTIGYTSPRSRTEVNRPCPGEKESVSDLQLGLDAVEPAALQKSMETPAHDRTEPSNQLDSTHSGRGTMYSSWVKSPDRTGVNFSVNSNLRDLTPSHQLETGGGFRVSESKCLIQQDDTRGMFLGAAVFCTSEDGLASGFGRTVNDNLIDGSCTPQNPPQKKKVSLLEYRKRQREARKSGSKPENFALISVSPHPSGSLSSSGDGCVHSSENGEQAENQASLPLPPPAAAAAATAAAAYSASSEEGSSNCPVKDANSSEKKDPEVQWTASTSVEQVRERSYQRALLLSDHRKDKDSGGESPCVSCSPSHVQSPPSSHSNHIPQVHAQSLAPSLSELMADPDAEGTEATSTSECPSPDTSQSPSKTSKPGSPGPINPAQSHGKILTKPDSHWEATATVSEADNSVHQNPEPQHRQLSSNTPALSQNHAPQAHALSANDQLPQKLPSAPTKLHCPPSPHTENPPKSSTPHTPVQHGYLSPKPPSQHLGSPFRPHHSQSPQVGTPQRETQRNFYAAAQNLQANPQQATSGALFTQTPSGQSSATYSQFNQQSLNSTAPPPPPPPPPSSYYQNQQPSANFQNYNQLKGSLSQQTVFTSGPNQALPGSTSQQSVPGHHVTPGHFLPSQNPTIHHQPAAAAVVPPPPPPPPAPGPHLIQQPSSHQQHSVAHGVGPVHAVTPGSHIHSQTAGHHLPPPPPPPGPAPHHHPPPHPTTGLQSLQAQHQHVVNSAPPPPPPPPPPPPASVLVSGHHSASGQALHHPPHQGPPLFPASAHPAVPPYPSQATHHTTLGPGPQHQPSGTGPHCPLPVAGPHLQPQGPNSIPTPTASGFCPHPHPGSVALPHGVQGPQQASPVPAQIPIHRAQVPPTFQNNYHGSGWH
UniProt Q3UFS4: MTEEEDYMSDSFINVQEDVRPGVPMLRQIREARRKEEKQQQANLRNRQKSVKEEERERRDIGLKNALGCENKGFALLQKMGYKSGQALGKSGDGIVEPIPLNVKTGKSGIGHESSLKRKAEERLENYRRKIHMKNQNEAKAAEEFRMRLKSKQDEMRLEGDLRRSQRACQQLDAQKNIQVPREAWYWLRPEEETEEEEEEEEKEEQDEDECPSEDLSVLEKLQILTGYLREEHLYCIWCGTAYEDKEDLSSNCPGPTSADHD
UniProt Q3UL36: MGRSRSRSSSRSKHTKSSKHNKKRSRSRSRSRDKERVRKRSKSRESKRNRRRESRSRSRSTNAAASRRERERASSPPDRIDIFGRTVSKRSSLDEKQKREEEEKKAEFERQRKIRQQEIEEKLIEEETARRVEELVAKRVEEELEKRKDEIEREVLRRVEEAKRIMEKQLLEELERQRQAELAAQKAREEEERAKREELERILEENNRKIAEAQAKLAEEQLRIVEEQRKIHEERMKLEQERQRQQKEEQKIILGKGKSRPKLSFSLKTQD
UniProt Q3UC65: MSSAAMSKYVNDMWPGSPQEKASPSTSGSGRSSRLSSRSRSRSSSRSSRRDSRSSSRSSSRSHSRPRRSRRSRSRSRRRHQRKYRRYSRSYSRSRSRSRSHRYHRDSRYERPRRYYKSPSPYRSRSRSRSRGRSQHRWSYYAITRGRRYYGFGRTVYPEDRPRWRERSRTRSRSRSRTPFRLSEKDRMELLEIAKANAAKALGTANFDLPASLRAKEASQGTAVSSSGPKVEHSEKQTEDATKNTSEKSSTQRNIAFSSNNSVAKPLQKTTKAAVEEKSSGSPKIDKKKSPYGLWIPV
UniProt Q4FZF3: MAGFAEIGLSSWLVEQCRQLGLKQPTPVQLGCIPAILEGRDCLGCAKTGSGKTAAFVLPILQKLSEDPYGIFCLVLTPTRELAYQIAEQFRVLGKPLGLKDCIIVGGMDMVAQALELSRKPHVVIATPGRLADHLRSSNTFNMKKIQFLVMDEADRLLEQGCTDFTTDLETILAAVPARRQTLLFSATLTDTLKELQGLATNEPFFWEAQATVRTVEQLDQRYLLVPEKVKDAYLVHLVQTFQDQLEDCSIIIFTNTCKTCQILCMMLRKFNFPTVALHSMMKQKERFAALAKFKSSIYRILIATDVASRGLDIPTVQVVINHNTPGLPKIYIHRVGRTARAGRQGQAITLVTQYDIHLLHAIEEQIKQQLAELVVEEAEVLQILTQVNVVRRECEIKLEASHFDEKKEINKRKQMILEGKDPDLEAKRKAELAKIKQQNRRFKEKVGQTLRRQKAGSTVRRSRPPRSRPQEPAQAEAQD
UniProt Q3UGP9: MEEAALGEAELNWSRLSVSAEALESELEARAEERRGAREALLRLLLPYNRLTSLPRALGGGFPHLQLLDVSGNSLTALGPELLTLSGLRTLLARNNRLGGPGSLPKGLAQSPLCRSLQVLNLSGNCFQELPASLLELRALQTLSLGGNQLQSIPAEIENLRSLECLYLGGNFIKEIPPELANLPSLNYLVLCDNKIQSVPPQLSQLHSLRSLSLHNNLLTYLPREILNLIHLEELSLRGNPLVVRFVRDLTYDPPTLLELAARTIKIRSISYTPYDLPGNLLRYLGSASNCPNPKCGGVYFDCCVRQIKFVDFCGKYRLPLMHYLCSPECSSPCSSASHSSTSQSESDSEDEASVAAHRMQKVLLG

The list shows a part of the results. Most values lie at the level of the controls, where differences are scatter.

Compound in the experiment: CN[C@@H]1C[C@H]2O[C@@](C)([C@@H]1OC)n1c3ccccc3c3c4c(c5c6ccccc6n2c5c31)C(=O)NC4 [staurosporine]
In words: log2 fold change of tryptic peptide abundance, ligand vs vehicle (limited proteolysis) (log2 ratio); higher = more trypsin-susceptible (destabilized). The note with it: ligand concentration: 20 uM; sample: mouse liver crude lysate; replicate design: treated separately.
As to “UniProt Q3UG20 (peptide sequence: ETTENISGSCK, peptide start residue: 806)”, the log2 fold change stood at 0.814.

“UniProt Q3UFS4 (peptide sequence: NALGCENKGFALLQK, peptide start residue: 65)”: the log2 fold change was found to be 0.165. In the case of “UniProt Q3UL36 (peptide sequence: ILEENNR, peptide start residue: 202)”, the log2 fold change is -0.144. Consider “UniProt Q3UC65 (peptide sequence: DRMELLEIAK, peptide start residue: 186)”, for which the log2 fold change was determined as 0.493.

As for “UniProt Q4FZF3 (peptide sequence: ILIATDVASR, peptide start residue: 301)”, the log2 fold change was 0.395. With “UniProt Q3UGP9 (peptide sequence: SLSLHNNLLTYLPR, peptide start residue: 211)” the figure was 0.213.
